Experimental data taken from the supplement of paper PMC12872613.
Counter-ions that a name gives are not always drawn. Some of the results follow. No stated cut-off is given here; in the data, active = 0.7 or more and inactive = the rest. Most values come without repeats; read them as rough.

Tested on: MiaPaCa-2 CLSA-25
Experiment: cell death relative to DMSO vehicle (fraction); higher = more cytotoxic
Details: 5 µM; treatment time 48 h; medium cystine 25 µM

For `CCCCCCNC(=O)Nc1ccc(S(=O)(=O)Nc2ccc(CCNC[C@H](O)COc3ccc(O)cc3)cc2)cc1`, which cell death is on record?
The cell death was inactive: 0.554.

`CN(C)c1cccc(-c2c3c(=O)n(-c4ccccc4Cl)[nH]c3cc(=O)n2C)c1` was tested. Which cell death did it give?
The cell death was inactive: -0.0329.

With `CC(=O)NC1CCSC1=O` (stereo not drawn) [Citiolone] as the compound, how does the cell death read?
Its cell death is inactive: 0.123.

For `Cc1ncc(CO)c(CO)c1O` [Pyridoxine hydrochloride], which cell death is on record?
The cell death was inactive: 0.141.

How did the cell death turn out when `CC(C)CCCC(C)C1CCC2C3=CC=C4CC(O)CCC4(C)C3CCC21C` (stereo not drawn) [7-Dehydrocholesterol] was run?
Its cell death is inactive: 0.522.

For `CCCSc1nc(N[C@@H]2C[C@H]2c2ccc(F)c(F)c2)c2nnn([C@@H]3C[C@H](OCCO)[C@@H](O)[C@H]3O)c2n1` [Ticagrelor], which cell death is on record?
Its cell death is inactive: 0.395.

`NCCS(=O)(=O)O` [Taurine] was tested. Which cell death did it give?
Its cell death is inactive: 0.0795.

`CCCNC(=O)NS(=O)(=O)c1ccc(Cl)cc1` [Chlorpropamide] was tested. Which cell death did it give?
The cell death was inactive: 0.497.

`CCN(CC)C(=O)Cc1csc(NS(=O)(=O)c2cccc(Cl)c2C)n1` was tested. Which cell death did it give?
Its cell death is inactive: 0.165.

Which cell death does the source give for `CC(C)=CCC[C@](C)(O[C@@H]1O[C@H](CO[C@@H]2O[C@H](CO)[C@@H](O)[C@H](O)[C@H]2O)[C@@H](O)[C@H](O)[C@H]1O)[C@H]1CC[C@]2(C)[C@@H]1[C@H](O)C[C@@H]1[C@@]3(C)CC[C@H](O[C@@H]4O[C@H](CO)[C@@H](O)[C@H](O)[C@H]4O)C(C)(C)[C@@H]3CC[C@]12C` [Gypenoside XVII] here?
The cell death was active: 0.826.

With `CC1=C(/C=C/C(C)=C/C=C/C(C)=C/C=C/C=C(C)/C=C/C=C(C)/C=C/C2=C(C)C(=O)[C@@H](O)CC2(C)C)C(C)(C)C[C@H](O)C1=O` [Astaxanthin] as the compound, how does the cell death read?
Its cell death is inactive: 0.00856.

With `CO[C@H]1/C=C/O[C@@]2(C)Oc3c(C)c(O)c4c(c3C2=O)C2=NC3(CCN(CC(C)C)CC3)NC2=C(NC(=O)/C(C)=C\C=C\[C@H](C)[C@H](O)[C@@H](C)[C@@H](O)[C@@H](C)[C@H](OC(C)=O)[C@@H]1C)C4=O` [Rifabutin] as the compound, how does the cell death read?
The cell death was inactive: 0.445.

With `Oc1ccc(OC2CCCCO2)cc1` (stereo not drawn) [Deoxyarbutin] as the compound, how does the cell death read?
Its cell death is inactive: 0.0869.

For `Nc1ncccc1-c1nc2ccc(-c3ccccc3)nc2n1-c1ccc(C2(N)CCC2)cc1` [Miransertib], which cell death is on record?
Its cell death is active: 0.812.

How did the cell death turn out when `CC1(C)[C@@H](O)CC[C@]2(C)[C@H]3C(=O)C=C4[C@@H]5C[C@@](C)(C(=O)O)CC[C@]5(C)CC[C@@]4(C)[C@]3(C)CC[C@@H]12` [Enoxolone] was run?
The cell death was inactive: 0.0445.

How did the cell death turn out when `c1ccc(C2CN3CCSC3=N2)cc1` (stereo not drawn) [Tetramisole hydrochloride] was run?
The cell death was inactive: 0.148.

With `C[C@@](Cc1ccc(O)c(O)c1)(NN)C(=O)O` [Carbidopa Hydrate] as the compound, how does the cell death read?
Its cell death is inactive: 0.475.

Which cell death does the source give for `CC1(C)CC[C@]2(C(=O)O[C@@H]3O[C@H](CO)[C@@H](O)[C@H](O)[C@H]3O)CC[C@]3(C)C(=CC[C@@H]4[C@@]5(C)CC[C@H](O[C@@H]6O[C@H](C(=O)O)[C@@H](O)[C@H](O)[C@H]6O)C(C)(C)[C@@H]5CC[C@]43C)[C@@H]2C1` [Chikusetsusaponin IVa] here?
The cell death was inactive: 0.264.

With `O=C(Cc1cccc(OC(F)(F)F)c1)Nc1ccc(CCCCc2nnc(NC(=O)Cc3ccccn3)s2)nn1` as the compound, how does the cell death read?
The cell death was inactive: 0.107.

Which cell death does the source give for `NC(N)=NCCCC(=O)O` [4-Guanidinobutyric acid] here?
Its cell death is inactive: 0.31.

With `CNc1ccc([N+](=O)[O-])c(Nc2ccc3[nH]ncc3c2)n1` as the compound, how does the cell death read?
The cell death was inactive: 0.0677.

Which cell death does the source give for `CC(C)(CO)C(O)C(=O)NCCCO` (stereo not drawn) [Panthenol] here?
The cell death was inactive: 0.0465.

For `Nc1ncnc2c1ncn2[C@@H]1O[C@H](COP(=O)(O)O)[C@@H](O)[C@H]1O` [Adenosine 5'-monophosphate], which cell death is on record?
Its cell death is inactive: 0.226.

For `CC(C)C[C@@H](C(=O)N[C@H](C(=O)OC1CCCC1)c1ccccc1)[C@H](O)C(=O)NO` [Tosedostat], which cell death is on record?
The cell death was inactive: 0.1.

For `N=C(N)NC(=N)NCCc1ccccc1` [Phenformin hydrochloride], which cell death is on record?
The cell death was inactive: 0.316.

Which cell death does the source give for `CC(O)c1ccc(S(=O)(=O)NC(=O)NC2CCCCC2)cc1` (stereo not drawn) [Hydroxyhexamide] here?
The cell death was inactive: 0.0235.

`CCOC(=O)C(C)(C)Oc1ccc(Cl)cc1` [Clofibrate] was tested. Which cell death did it give?
Its cell death is inactive: -0.038.

For `CCCc1nn(C)c2c(=O)[nH]c(-c3cc(S(=O)(=O)N4CCN(C)CC4)ccc3OCC)nc12` [Sildenafil citrate], which cell death is on record?
Its cell death is inactive: 0.117.
